Assay results reported in publication doi:10.1101/2024.03.19.585677.
Construct, isoform or probe ends are uncertain for at least one entry. No signal at the amounts used counts as a negative.

Target: PSB15 WT (Xanthomonas phage phiLf-UK) (UniProt Q8P905)
Test: EMSA

Sequence	binding result
AAAAAAAAAAAAAAAAAAAAAAAAA [poly(A)25]	no binding
TTTTTTTTTTTTTTTTTTTTTTTTT [poly(T)25]	no binding
